Measured values published in US4327222A, “3,4-Diarylisoxazol-5-acetic acids and process for making same” (priority 1979, dated 1982).
Where two headings read alike, the source gives them in different places.

How the values were obtained:
[1] = in vivo; details: rat, po, rats, read-out: Acute Toxicity (LD50) p.o.
Method: Acute toxicities are determined in rats and in mice and the LD50 's are calculated according to the method of Litchfield and Wilcoxon, J.Pharmacol.Exp. Therap.

[2] = in vivo; details: mouse, po, mice, read-out: Acute Toxicity (LD50) p.o.
Method: 138, 405 (1962), both in the rat. […] Acute toxicities are determined in rats and in mice and the LD50 's are calculated according to the method of Litchfield and Wilcoxon, J.Pharmacol.Exp. Therap. 96, 99 (1949).

Compound: COc1ccc2cc([C@H](C)C(=O)O)ccc2c1 [Naproxen]
- LD50 [1]: 347 mg/kg
- LD50 [2]: 830 mg/kg
